Data from ChEMBL document CHEMBL5465560, “Selectivity Literature for EUbOPEN Chemogenomic Library” (2024).

Protein sequences, listed by entry. Tags and fused reporters are not part of them. Lines headed by an entry give the natural chain unless they say otherwise; changes in a name come on top.
UniProt Q9NWZ3, whole entry: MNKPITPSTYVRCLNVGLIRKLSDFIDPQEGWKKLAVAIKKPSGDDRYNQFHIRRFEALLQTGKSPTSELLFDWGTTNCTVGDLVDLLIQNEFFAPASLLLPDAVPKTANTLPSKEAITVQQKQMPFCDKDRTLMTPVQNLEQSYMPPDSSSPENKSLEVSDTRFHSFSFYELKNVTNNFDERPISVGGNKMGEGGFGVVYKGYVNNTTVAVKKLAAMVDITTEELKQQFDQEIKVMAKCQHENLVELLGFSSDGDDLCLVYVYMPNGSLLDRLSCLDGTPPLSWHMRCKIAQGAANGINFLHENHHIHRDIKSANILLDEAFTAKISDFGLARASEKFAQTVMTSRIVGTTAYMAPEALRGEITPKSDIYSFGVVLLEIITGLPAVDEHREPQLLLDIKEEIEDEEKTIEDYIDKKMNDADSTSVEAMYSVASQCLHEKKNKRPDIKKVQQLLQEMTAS
UniProt Q9Y6R4: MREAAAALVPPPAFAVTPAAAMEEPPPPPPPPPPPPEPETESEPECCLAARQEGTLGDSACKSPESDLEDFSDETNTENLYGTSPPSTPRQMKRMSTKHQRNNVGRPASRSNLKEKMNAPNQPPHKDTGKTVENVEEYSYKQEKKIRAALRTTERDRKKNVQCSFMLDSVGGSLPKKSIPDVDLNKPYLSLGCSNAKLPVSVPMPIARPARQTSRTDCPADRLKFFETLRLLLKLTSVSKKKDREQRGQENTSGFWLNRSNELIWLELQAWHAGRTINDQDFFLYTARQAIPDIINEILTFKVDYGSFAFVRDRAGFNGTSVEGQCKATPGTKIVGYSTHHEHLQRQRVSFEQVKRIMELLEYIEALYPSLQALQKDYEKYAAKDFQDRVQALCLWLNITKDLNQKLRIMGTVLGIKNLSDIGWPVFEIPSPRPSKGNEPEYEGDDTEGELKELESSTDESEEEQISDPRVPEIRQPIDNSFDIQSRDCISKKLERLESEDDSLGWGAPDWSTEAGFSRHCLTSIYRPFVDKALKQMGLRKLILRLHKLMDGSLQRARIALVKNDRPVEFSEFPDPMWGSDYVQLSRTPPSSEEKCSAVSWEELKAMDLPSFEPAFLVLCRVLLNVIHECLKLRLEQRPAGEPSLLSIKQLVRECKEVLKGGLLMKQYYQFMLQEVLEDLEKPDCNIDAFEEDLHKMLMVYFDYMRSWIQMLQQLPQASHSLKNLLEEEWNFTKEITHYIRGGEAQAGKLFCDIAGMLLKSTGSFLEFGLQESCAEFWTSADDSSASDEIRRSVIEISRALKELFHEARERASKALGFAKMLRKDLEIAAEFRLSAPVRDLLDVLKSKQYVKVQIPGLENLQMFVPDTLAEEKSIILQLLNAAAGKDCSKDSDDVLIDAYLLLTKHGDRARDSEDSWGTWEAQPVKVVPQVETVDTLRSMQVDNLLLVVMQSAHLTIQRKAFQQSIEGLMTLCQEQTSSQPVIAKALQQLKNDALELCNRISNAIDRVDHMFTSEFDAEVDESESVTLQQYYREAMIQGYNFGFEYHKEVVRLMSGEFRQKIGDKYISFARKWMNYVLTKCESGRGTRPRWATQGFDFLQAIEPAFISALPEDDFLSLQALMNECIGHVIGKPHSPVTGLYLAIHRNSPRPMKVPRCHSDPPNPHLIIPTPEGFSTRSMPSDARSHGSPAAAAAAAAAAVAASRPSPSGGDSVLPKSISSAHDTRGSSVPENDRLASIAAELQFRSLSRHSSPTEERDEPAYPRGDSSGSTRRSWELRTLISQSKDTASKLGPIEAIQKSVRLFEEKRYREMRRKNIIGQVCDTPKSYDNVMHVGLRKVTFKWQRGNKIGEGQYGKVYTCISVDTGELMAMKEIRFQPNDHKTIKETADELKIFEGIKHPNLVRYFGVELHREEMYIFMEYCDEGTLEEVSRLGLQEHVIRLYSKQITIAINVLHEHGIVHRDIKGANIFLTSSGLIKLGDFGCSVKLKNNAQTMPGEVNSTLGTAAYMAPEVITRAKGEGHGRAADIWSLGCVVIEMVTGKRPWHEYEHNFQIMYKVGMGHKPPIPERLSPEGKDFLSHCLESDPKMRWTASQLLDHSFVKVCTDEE
UniProt Q13523: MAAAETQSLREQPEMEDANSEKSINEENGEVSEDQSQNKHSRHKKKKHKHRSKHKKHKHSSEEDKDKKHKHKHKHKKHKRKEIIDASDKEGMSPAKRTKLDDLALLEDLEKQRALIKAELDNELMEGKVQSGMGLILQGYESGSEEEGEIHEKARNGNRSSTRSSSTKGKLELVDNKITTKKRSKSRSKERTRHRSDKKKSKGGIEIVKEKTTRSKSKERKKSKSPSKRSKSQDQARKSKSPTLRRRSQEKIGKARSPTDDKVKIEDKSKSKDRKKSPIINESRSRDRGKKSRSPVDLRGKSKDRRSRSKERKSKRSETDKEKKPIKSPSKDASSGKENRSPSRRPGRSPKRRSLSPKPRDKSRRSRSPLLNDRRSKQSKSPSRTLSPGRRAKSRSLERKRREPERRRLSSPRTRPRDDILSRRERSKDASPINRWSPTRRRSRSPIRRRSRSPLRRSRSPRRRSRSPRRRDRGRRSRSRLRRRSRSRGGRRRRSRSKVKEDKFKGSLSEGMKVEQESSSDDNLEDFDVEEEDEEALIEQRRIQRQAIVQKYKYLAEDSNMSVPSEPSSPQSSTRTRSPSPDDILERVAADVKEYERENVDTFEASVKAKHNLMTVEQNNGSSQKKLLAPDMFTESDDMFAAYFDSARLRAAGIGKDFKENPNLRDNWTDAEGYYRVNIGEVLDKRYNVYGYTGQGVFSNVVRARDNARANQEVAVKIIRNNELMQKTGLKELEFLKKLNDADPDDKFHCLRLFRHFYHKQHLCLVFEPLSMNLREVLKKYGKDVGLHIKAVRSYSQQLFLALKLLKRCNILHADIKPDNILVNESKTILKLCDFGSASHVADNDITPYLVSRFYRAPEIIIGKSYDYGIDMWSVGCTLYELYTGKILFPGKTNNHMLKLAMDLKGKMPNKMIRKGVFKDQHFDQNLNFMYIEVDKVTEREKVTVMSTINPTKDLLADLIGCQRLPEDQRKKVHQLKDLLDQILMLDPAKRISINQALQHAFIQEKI
UniProt Q9HC98: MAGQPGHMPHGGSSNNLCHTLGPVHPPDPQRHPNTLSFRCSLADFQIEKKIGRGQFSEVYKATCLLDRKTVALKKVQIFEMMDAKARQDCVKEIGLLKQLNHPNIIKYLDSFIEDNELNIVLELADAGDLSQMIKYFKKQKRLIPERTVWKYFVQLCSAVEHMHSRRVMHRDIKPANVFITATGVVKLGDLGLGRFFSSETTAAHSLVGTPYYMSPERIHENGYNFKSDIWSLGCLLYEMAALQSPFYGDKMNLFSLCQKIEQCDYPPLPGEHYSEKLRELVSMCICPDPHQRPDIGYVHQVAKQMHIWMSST
UniProt Q9UK32, whole entry: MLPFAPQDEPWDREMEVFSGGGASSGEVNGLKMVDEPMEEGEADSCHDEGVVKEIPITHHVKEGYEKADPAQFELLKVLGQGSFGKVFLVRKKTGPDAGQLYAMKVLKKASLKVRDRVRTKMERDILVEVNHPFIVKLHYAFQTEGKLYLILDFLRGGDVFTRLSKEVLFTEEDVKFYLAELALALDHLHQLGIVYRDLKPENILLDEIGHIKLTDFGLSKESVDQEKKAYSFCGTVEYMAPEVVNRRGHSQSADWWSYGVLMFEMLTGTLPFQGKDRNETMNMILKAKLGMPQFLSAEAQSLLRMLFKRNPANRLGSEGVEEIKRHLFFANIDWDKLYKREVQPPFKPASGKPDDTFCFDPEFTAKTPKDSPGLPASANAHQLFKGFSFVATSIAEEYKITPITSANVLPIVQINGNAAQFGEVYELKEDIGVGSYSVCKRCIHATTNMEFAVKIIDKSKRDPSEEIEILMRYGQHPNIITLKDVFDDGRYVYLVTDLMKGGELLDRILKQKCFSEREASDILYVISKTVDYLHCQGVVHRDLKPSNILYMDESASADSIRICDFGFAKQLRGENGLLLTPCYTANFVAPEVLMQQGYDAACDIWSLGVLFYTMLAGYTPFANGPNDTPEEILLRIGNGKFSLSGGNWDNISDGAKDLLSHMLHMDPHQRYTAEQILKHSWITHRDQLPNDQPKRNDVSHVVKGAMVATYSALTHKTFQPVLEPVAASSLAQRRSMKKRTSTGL
UniProt O95382: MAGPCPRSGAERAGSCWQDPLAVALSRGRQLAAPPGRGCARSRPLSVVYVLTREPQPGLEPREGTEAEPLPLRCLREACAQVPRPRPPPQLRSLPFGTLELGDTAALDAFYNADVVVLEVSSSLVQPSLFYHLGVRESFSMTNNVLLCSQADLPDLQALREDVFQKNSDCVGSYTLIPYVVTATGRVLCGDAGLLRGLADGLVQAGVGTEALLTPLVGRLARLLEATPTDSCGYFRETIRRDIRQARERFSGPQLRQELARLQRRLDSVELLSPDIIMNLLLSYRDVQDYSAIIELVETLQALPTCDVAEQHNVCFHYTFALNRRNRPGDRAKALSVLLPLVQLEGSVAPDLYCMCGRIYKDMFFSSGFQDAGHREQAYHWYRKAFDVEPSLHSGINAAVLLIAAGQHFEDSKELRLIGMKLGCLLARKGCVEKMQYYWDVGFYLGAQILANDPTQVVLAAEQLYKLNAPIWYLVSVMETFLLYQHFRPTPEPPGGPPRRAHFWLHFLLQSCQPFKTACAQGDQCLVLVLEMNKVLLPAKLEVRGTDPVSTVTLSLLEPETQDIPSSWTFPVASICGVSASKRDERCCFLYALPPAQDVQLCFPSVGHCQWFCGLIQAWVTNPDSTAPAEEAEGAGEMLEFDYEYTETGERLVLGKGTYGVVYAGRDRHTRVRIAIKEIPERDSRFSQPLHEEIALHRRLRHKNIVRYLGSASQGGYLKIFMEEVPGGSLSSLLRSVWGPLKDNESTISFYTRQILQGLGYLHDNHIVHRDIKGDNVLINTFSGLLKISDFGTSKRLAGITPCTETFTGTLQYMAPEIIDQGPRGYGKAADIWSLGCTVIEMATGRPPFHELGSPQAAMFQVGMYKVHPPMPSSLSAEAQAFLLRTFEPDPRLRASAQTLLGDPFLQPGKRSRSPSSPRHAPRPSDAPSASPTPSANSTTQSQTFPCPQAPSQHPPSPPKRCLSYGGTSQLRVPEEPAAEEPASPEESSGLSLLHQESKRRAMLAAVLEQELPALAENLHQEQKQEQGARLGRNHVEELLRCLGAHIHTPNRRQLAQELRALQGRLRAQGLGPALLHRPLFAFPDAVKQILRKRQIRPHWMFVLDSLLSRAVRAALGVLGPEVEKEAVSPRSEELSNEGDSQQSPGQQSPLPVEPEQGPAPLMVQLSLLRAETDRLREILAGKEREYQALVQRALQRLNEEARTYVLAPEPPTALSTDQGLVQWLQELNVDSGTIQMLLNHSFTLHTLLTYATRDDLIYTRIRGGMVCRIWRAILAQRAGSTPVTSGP
UniProt P23458: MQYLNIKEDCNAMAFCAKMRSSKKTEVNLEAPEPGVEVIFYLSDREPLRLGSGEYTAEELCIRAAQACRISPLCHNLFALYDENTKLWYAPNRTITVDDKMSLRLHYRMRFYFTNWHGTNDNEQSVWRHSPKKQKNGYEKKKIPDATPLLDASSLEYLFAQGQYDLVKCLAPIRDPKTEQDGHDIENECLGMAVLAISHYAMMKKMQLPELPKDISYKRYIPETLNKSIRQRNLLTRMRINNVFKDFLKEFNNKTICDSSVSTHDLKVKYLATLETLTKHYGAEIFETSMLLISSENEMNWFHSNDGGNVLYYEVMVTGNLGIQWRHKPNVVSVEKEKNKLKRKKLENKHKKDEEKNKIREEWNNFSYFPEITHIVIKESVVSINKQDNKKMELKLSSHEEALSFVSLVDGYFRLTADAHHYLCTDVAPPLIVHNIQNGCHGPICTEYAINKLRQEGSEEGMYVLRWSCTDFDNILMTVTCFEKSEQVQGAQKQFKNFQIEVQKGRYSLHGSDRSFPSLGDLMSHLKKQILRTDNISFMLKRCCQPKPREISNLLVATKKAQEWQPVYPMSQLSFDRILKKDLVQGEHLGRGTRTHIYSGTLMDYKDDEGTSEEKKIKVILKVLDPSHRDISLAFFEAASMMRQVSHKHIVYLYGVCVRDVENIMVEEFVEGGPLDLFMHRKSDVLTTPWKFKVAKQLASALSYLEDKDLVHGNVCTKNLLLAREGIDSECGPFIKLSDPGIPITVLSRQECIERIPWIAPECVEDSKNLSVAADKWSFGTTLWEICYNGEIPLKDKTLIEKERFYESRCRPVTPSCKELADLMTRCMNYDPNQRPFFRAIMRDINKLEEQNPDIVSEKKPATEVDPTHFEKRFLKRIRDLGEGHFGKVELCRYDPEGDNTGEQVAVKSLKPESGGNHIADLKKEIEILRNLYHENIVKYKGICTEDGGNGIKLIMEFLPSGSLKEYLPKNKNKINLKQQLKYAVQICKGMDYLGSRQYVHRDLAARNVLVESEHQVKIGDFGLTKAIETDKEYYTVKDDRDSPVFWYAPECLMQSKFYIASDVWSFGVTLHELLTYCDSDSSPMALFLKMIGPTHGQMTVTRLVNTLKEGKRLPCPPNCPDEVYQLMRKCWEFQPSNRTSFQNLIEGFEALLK

How the values were obtained:
Details in all cases: at 1 µM
[1] = molecular target: TGF-beta receptor type-1 (Homo sapiens) (UniProt P36897); assay: Selectivity interaction (KinomeScan (DiscoverX)) EUB0001581a TGFBR1
[2] = molecular target: Ribosomal protein S6 kinase beta-1 (Homo sapiens, UniProt P23443); assay: Selectivity interaction (KinomeScan (DiscoverX)) EUB0001581a RPS6KB1
[3] = molecular target: Myosin-IIIa (Homo sapiens) (UniProt Q8NEV4); assay: Selectivity interaction (KinomeScan (DiscoverX)) EUB0001581a MYO3A
[4] = molecular target: BMP-2-inducible protein kinase (Homo sapiens) (UniProt Q9NSY1)
[5] = molecular target: Serine/threonine-protein kinase/endoribonuclease IRE1 (Homo sapiens) (UniProt O75460); assay: Selectivity interaction (KinomeScan (DiscoverX)) EUB0001581a ERN1
[6] = molecular target: Mitogen-activated protein kinase 6 (Homo sapiens) (UniProt Q16659); assay: Selectivity interaction (KinomeScan (DiscoverX)) EUB0001581a MAPK6
[7] = molecular target: Homeodomain-interacting protein kinase 1 (Homo sapiens, UniProt Q86Z02)
[8] = molecular target: Serine/threonine-protein kinase D3 (Homo sapiens) (UniProt O94806); assay: Selectivity interaction (KinomeScan (DiscoverX)) EUB0001581a PRKD3
[9] = molecular target: Mitogen-activated protein kinase kinase kinase 13 (Homo sapiens) (UniProt O43283); assay: Selectivity interaction (KinomeScan (DiscoverX)) EUB0001581a MAP3K13
[10] = molecular target: STE20-like serine/threonine-protein kinase (Homo sapiens, UniProt Q9H2G2); assay: Selectivity interaction (KinomeScan (DiscoverX)) EUB0001581a SLK
[11] = molecular target: Serine/threonine-protein kinase PAK 6 (Homo sapiens) (UniProt Q9NQU5); assay: Selectivity interaction (KinomeScan (DiscoverX)) EUB0001581a PAK6
[12] = molecular target: Serine/threonine-protein kinase tousled-like 1 (Homo sapiens) (UniProt Q9UKI8); assay: Selectivity interaction (KinomeScan (DiscoverX)) EUB0001581a TLK1
[13] = molecular target: Interleukin-1 receptor-associated kinase 4 (Homo sapiens) (UniProt Q9NWZ3); assay: Selectivity interaction (KinomeScan (DiscoverX)) EUB0001581a IRAK4
[14] = molecular target: Mitogen-activated protein kinase kinase kinase 4 (Homo sapiens) (UniProt Q9Y6R4); assay: Selectivity interaction (KinomeScan (DiscoverX)) EUB0001581a MAP3K4
[15] = molecular target: Serine/threonine-protein kinase 32A (Homo sapiens) (UniProt Q8WU08); assay: Selectivity interaction (KinomeScan (DiscoverX)) EUB0001581a STK32A
[16] = molecular target: Protein kinase C iota type (Homo sapiens) (UniProt P41743); assay: Selectivity interaction (KinomeScan (DiscoverX)) EUB0001581a PRKCI
[17] = molecular target: MAP kinase-activated protein kinase 2 (Homo sapiens, UniProt P49137); assay: Selectivity interaction (KinomeScan (DiscoverX)) EUB0001581a MAPKAPK2
Ephrin type-A receptor 4 = Ephrin type-A receptor 4 (Homo sapiens, UniProt P54764); assay: Selectivity interaction (KinomeScan (DiscoverX)) EUB0001581a EPHA4
[18] = molecular target: Mitogen-activated protein kinase kinase kinase 11 (Homo sapiens) (UniProt Q16584); assay: Selectivity interaction (KinomeScan (DiscoverX)) EUB0001581a MAP3K11
[19] = molecular target: Serine/threonine-protein kinase PRP4 homolog (Homo sapiens) (UniProt Q13523); assay: Selectivity interaction (KinomeScan (DiscoverX)) EUB0001581a PRPF4B
[20] = molecular target: Tyrosine-protein kinase Lyn (Homo sapiens, UniProt P07948); assay: Selectivity interaction (KinomeScan (DiscoverX)) EUB0001581a LYN
[21] = molecular target: Mitogen-activated protein kinase kinase kinase 3 (Homo sapiens) (UniProt Q99759); assay: Selectivity interaction (KinomeScan (DiscoverX)) EUB0001581a MAP3K3
[22] = molecular target: Serine/threonine-protein kinase ULK2 (Homo sapiens) (UniProt Q8IYT8); assay: Selectivity interaction (KinomeScan (DiscoverX)) EUB0001581a ULK2
[23] = molecular target: Serine/threonine-protein kinase Nek6 (Homo sapiens) (UniProt Q9HC98); assay: Selectivity interaction (KinomeScan (DiscoverX)) EUB0001581a NEK6
[24] = molecular target: Ribosomal protein S6 kinase alpha-6 (Homo sapiens, UniProt Q9UK32); assay: Selectivity interaction (KinomeScan (DiscoverX)) EUB0001581a RPS6KA6
[25] = molecular target: Membrane-associated tyrosine- and threonine-specific cdc2-inhibitory kinase (Homo sapiens) (UniProt Q99640); assay: Selectivity interaction (KinomeScan (DiscoverX)) EUB0001581a PKMYT1
[26] = molecular target: Mitogen-activated protein kinase kinase kinase 6 (Homo sapiens) (UniProt O95382); assay: Selectivity interaction (KinomeScan (DiscoverX)) EUB0001581a MAP3K6
[27] = molecular target: Leukocyte tyrosine kinase receptor (Homo sapiens, UniProt P29376); assay: Selectivity interaction (KinomeScan (DiscoverX)) EUB0001581a LTK
[28] = molecular target: Serine/threonine-protein kinase 32C (Homo sapiens) (UniProt Q86UX6); assay: Selectivity interaction (KinomeScan (DiscoverX)) EUB0001581a STK32C
[29] = molecular target: Dual specificity mitogen-activated protein kinase kinase 3 (Homo sapiens) (UniProt P46734); assay: Selectivity interaction (KinomeScan (DiscoverX)) EUB0001581a MAP2K3
[30] = molecular target: Ephrin type-B receptor 4 (Homo sapiens) (UniProt P54760); assay: Selectivity interaction (KinomeScan (DiscoverX)) EUB0001581a EPHB4
[31] = molecular target: Macrophage-stimulating protein receptor (Homo sapiens) (UniProt Q04912); assay: Selectivity interaction (KinomeScan (DiscoverX)) EUB0001581a MST1R
[32] = system: Phosphatidylinositol 4,5-bisphosphate 3-kinase catalytic subunit alpha isoform (Homo sapiens), P42336 [E545K]; assay: Selectivity interaction (KinomeScan (DiscoverX)) EUB0001581a PIK3CA
[33] = molecular target: Cyclin-dependent kinase 16 (Homo sapiens) (UniProt Q00536); assay: Selectivity interaction (KinomeScan (DiscoverX)) EUB0001581a CDK16
[34] = molecular target: Homeodomain-interacting protein kinase 3 (Homo sapiens, UniProt Q9H422); assay: Selectivity interaction (KinomeScan (DiscoverX)) EUB0001581a HIPK3
[35] = molecular target: Dual specificity protein kinase CLK3 (Homo sapiens, UniProt P49761); assay: Selectivity interaction (KinomeScan (DiscoverX)) EUB0001581a CLK3
[36] = molecular target: Tyrosine-protein kinase JAK1 (Homo sapiens, UniProt P23458); assay: Selectivity interaction (KinomeScan (DiscoverX)) EUB0001581a JAK1
[37] = molecular target: Death-associated protein kinase 3 (Homo sapiens) (UniProt O43293); assay: Selectivity interaction (KinomeScan (DiscoverX)) EUB0001581a DAPK3
[38] = molecular target: Ribosomal protein S6 kinase alpha-2 (Homo sapiens) (UniProt Q15349)

C[C@@H]1C[C@H](N)C[C@H](c2ccncc2NC(=O)c2ccc(F)c(-c3c(F)cccc3F)n2)C1
% of control [1]: 100% | % of control [2]: 100% | % of control [3]: 100% | % of control [4]: 96% | % of control [5]: 100% | % of control [6]: 100% | % of control [7]: 95% | % of control [8]: 34% | % of control [9]: 98% | % of control [10]: 76% | % of control [11]: 97% | % of control [12]: 77% | % of control [13]: 100% | % of control [14]: 100% | % of control [15]: 92% | % of control [16]: 81% | % of control [17]: 93% | % of control (Ephrin type-A receptor 4): 100% | % of control [18]: 100% | % of control [19]: 100% | % of control [20]: 100% | % of control [21]: 100% | % of control [22]: 100% | % of control [23]: 100% | % of control [24]: 100% | % of control [25]: 100% | % of control [26]: 100% | % of control [27]: 88% | % of control [28]: 100% | % of control [29]: 65% | % of control [30]: 100% | % of control [31]: 92% | % of control [32]: 80% | % of control [33]: 100% | % of control [34]: 93% | % of control [35]: 87% | % of control [36]: 71% | % of control [37]: 97% | % of control [38]: 94%
